Taken from: PubChem BioAssay AID743454 (Peter MacCallum Cancer Centre, 2014)
Here is a random part of about 18,000 reagents tested. Of all reagents, 450 (2.5%) got an active call. 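Single biological run; no consistent viability z cut-off exists, so the class columns, not z-scores, define the calls.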 Reagent sequences are not shown.

- Test: 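Search for knock-downs that restore vorinostat killing in resistant colon cancer cells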 (primary screen)
- Cells: human HCT116-VR colon cancer cells, selected for vorinostat resistance
- Reagent: siRNA pool against human genes, 40 nM siRNA pool
- Time to read-out: vorinostat for 24 h, read-out about 72 h after transfection
- Treatment: vorinostat at 2.5 µM final
- Read-out: 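Two measures, CellTiter-Fluor viability and luminescent caspase 3/7 activity, each as fold change against same-plate mock wells, mean of duplicates, then screen-wide robust z-score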
- Reading the numbers: viability robust z-score: higher = more viable cells than screen typical; caspase robust z-score: higher = more caspase 3/7 activity than screen typical
- Call rule: 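Hits are knock-downs in viability class RV1/RV2 or caspase class CA1/CA2, excluding ones that killed cells in the no-drug cell-count arm; hits then retested with single siRNAs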

The opening 9 entries as a preview:
Target gene | viability hit class | caspase hit class | viability robust z-score | caspase robust z-score | Call
ZNF584 (GeneID 201514) | no change | no change | -0.64 | -0.38 | inactive
TYROBP (GeneID 7305) | no change | no change | 0.55 | 0.52 | inactive
SPOUT1 (GeneID 51490) | no change | no change | 2.25 | -0.56 | inactive
CEND1 (GeneID 51286) | no change | no change | 1.47 | -0.9 | inactive
ENTPD3 (GeneID 956) | no change | no change | -1.12 | 2.7 | inactive
AEN (GeneID 64782) | no change | no change | 0.08 | 0.09 | inactive
PPP1R14D (GeneID 54866) | no change | no change | -1.57 | -0.84 | inactive
ARHGEF11 (GeneID 9826) | no change | no change | 0.32 | -0.45 | inactive
MFF (GeneID 56947) | no change | no change | 0.23 | -0.4 | inactive

Results, from the first entry:
Target gene | viability hit class | caspase hit class | viability robust z-score | caspase robust z-score | Call
ZNF584 (GeneID 201514) | no change | no change | -0.64 | -0.38 | inactive
TYROBP (GeneID 7305) | no change | no change | 0.55 | 0.52 | inactive
SPOUT1 (GeneID 51490) | no change | no change | 2.25 | -0.56 | inactive
CEND1 (GeneID 51286) | no change | no change | 1.47 | -0.9 | inactive
ENTPD3 (GeneID 956) | no change | no change | -1.12 | 2.7 | inactive
AEN (GeneID 64782) | no change | no change | 0.08 | 0.09 | inactive
PPP1R14D (GeneID 54866) | no change | no change | -1.57 | -0.84 | inactive
ARHGEF11 (GeneID 9826) | no change | no change | 0.32 | -0.45 | inactive
MFF (GeneID 56947) | no change | no change | 0.23 | -0.4 | inactive
YBX3 (GeneID 8531) | no change | no change | 0.15 | -0.4 | inactive
NOTCH2 (GeneID 4853) | no change | no change | 1.4 | 0.36 | inactive
UCN2 (GeneID 90226) | no change | no change | -1.01 | 1.02 | inactive
CARNMT1 (GeneID 138199) | no change | no change | 0 | -0.36 | inactive
BMI1 (GeneID 648) | no change | no change | 0.3 | -0.88 | inactive
PPP1R1A (GeneID 5502) | no change | no change | -0.54 | 0.4 | inactive
MAGEB6 (GeneID 158809) | no change | no change | -1.02 | -0.64 | inactive
PPP1R16B (GeneID 26051) | no change | no change | 0.55 | 0.68 | inactive
GET1 (GeneID 7485) | no change | no change | 1.77 | -0.01 | inactive
ABCA12 (GeneID 26154) | no change | no change | 0.04 | -0.64 | inactive
NEIL2 (GeneID 252969) | no change | no change | 0.89 | 0.24 | inactive
PLXNA4 (GeneID 91584) | no change | no change | 1.4 | -0.94 | inactive
CD8B (GeneID 926) | no change | no change | 1.8 | 0.94 | inactive
FANCL (GeneID 55120) | no change | no change | 0.65 | 0.66 | inactive
INCENP (GeneID 3619) | no change | no change | -1.04 | 2.35 | inactive
C10orf71 (GeneID 118461) | no change | no change | 0 | -0.59 | inactive
SERPINA4 (GeneID 5267) | no change | no change | 0.29 | 0.33 | inactive
RNF182 (GeneID 221687) | no change | no change | 0.21 | -0.26 | inactive
TTC4 (GeneID 7268) | no change | no change | 1.52 | -0.38 | inactive
LNX1 (GeneID 84708) | no change | no change | 0.25 | -0.7 | inactive
IFT140 (GeneID 9742) | no change | no change | 0.76 | -0.87 | inactive
OPALIN (GeneID 93377) | no change | no change | 1.35 | -0.48 | inactive
ZBTB33 (GeneID 10009) | no change | no change | -1.27 | 1.32 | inactive
USP47 (GeneID 55031) | no change | no change | 0.18 | 0.06 | inactive
ANKRD12 (GeneID 23253) | no change | no change | 1.5 | -0.56 | inactive
MYO7A (GeneID 4647) | no change | no change | -0.32 | 2 | inactive
MUCL1 (GeneID 118430) | no change | no change | -0.93 | 0.8 | inactive
SGO1 (GeneID 151648) | no change | no change | -1.1 | 3.62 | inactive
PRG2 (GeneID 5553) | no change | no change | -1.32 | 5.12 | inactive
FAM168B (GeneID 130074) | no change | no change | 1.15 | 1.62 | inactive
PHF5A (GeneID 84844) | no change | no change | -1.79 | 0.92 | inactive
ZNF547 (GeneID 284306) | no change | CA1 (caspase activation) | -2.46 | 8.8 | active
ZNF385C (GeneID 201181) | no change | no change | 0.66 | 0.22 | inactive
SIPA1L3 (GeneID 23094) | no change | no change | -0.45 | 2 | inactive
INSM2 (GeneID 84684) | no change | no change | 0.64 | 3.79 | inactive
COX17 (GeneID 10063) | no change | no change | 1.82 | 0.33 | inactive
ATP6V0B (GeneID 533) | no change | no change | -0.51 | 0.76 | inactive
FAP (GeneID 2191) | no change | no change | -1.09 | -0.62 | inactive
KITLG (GeneID 4254) | no change | no change | 0.65 | -0.73 | inactive
GLB1L2 (GeneID 89944) | no change | no change | -3.17 | 3.71 | inactive
SASH3 (GeneID 54440) | no change | no change | -1.62 | -0.15 | inactive
TRIM56 (GeneID 81844) | no change | no change | -0.18 | 3.59 | inactive
ZNF260 (GeneID 339324) | no change | no change | 0.82 | -0.13 | inactive
MTHFD2L (GeneID 441024) | no change | no change | 0.03 | 0.34 | inactive
FBLN7 (GeneID 129804) | no change | no change | -0.44 | 0.45 | inactive
RASGRP2 (GeneID 10235) | no change | CA1 (caspase activation) | -2.59 | 7.46 | active
PDE4B (GeneID 5142) | no change | no change | 1.81 | -0.54 | inactive
FASTKD5 (GeneID 60493) | no change | no change | 0.74 | 0.37 | inactive
TRIM5 (GeneID 85363) | no change | no change | 0.56 | -0.35 | inactive
MTSS2 (GeneID 92154) | no change | no change | -0.34 | -0.02 | inactive
APOC1 (GeneID 341) | no change | no change | 1.2 | -0.68 | inactive
GKAP1 (GeneID 80318) | no change | no change | 0.22 | -0.55 | inactive
CENPK (GeneID 64105) | no change | no change | -0.26 | 1.21 | inactive
HLTF (GeneID 6596) | no change | no change | 0.6 | 3.03 | inactive
FBXW8 (GeneID 26259) | no change | no change | -0.25 | 2.06 | inactive
HIVEP1 (GeneID 3096) | no change | no change | -0.47 | -1.1 | inactive
PCDHB9 (GeneID 56127) | no change | no change | 1.34 | 0.06 | inactive
CDK17 (GeneID 5128) | no change | no change | -0.06 | 0.28 | inactive
PCLAF (GeneID 9768) | no change | no change | -0.78 | 1.29 | inactive
PPP3R2 (GeneID 5535) | no change | no change | 0.24 | -0.74 | inactive
GFOD2 (GeneID 81577) | no change | no change | -0.19 | 0.17 | inactive
RAB40AL (GeneID 282808) | no change | no change | -0.02 | -0.36 | inactive
SRRM1 (GeneID 10250) | no change | no change | -0.32 | -0.4 | inactive
SOX13 (GeneID 9580) | no change | no change | -0.68 | -0.46 | inactive
